{
  "sequences": {"note": "Chains of the proteins cited; added tags and fusions are not shown. Lines headed by an entry give the natural chain unless they say otherwise; changes in a name come on top.", "UniProt Q6RJR6": "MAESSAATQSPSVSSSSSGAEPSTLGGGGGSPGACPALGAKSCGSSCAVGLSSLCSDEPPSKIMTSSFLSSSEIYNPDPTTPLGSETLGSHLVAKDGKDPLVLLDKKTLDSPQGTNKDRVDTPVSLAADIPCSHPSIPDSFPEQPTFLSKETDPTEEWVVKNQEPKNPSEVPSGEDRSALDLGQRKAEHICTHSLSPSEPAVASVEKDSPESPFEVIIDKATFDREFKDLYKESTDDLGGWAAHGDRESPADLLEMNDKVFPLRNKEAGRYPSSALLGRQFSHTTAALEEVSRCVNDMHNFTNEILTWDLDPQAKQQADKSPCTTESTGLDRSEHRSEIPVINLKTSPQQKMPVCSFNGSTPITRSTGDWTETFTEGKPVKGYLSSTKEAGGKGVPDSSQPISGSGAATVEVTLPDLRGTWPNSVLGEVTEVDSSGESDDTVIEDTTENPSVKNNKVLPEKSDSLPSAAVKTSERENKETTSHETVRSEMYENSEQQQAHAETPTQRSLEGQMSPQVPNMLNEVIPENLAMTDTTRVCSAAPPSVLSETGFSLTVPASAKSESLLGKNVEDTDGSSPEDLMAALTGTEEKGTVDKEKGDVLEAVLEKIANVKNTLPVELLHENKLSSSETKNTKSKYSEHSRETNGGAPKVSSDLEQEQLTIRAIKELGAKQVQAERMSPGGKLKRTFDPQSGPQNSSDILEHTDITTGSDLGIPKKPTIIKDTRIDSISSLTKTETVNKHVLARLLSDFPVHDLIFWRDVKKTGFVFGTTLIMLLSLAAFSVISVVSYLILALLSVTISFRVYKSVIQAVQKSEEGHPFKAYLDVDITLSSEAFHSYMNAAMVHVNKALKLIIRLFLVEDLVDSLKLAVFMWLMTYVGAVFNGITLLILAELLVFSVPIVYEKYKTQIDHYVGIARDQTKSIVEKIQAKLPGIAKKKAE", "UniProt Q9ES97": "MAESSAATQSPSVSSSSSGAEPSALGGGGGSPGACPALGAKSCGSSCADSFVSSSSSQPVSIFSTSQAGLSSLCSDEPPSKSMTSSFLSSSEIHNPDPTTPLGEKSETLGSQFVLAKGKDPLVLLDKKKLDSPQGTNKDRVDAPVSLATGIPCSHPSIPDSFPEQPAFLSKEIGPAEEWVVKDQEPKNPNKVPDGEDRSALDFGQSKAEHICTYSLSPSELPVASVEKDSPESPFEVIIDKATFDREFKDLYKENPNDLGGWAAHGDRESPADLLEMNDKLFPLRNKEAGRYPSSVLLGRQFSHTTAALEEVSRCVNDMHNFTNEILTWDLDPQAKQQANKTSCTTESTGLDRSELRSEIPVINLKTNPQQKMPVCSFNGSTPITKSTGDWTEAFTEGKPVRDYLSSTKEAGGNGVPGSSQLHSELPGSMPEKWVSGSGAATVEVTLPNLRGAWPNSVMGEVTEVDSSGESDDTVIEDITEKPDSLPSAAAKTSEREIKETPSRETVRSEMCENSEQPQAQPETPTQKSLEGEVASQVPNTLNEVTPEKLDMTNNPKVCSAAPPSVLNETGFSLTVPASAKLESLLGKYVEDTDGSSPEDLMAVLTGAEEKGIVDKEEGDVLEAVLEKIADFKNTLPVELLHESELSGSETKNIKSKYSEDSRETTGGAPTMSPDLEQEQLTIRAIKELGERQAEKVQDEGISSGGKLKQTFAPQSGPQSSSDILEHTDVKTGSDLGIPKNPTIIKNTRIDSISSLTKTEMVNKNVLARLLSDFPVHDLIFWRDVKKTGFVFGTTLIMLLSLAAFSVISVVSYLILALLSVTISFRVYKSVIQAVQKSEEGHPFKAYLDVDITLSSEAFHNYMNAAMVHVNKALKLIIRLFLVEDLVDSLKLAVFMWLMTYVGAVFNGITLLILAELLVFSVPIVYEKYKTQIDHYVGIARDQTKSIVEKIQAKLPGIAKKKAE"},
  "source": "paper PMC10923887",
  "molecules": {"B1": {"name": "Fatty Acid Binding Protein 5 (protein, UniProt P55053 1-135)", "chain": "MASLKDLEGKWRLVESHGFEDYMKELGVGLALRKMGAMAKPDCIITLDGNNLTVKTESTVKTTVFSCTLGEKFDETTADGRKTETVCTFTDGALVQHQKWEGKESTITRKLKDGKMVVECVMNNAICTRVYEKVQ"}, "B2": {"name": "Fatty Acid Binding Protein 5 (mouse heart) (protein, UniProt Q05816 1-135)", "chain": "MASLKDLEGKWRLMESHGFEEYMKELGVGLALRKMAAMAKPDCIITCDGNNITVKTESTVKTTVFSCNLGEKFDETTADGRKTETVCTFQDGALVQHQQWDGKESTITRKLKDGKMIVECVMNNATCTRVYEKVQ"}, "B3": {"name": "FABP5-myc (protein, UniProt P55053 1-135)", "chain": "B1 chain"}},
  "key": {"[1]": {"target": "T1, Fatty Acid Binding Protein 5 (rat (endogenous in NRVCs)) (UniProt P55053)", "T1 sequence": "B1 chain", "experiment": "co-IP; endogenous proteins in NRVCs, IP with anti-RTN3 or anti-FABP5, normal rabbit IgG as control; Pierce Classic Magnetic IP/Co-IP Kit; with or without palmitate treatment"}, "[2]": {"target": "T2, Fatty Acid Binding Protein 5 (mouse heart) (mouse (endogenous in cardiac tissue)) (UniProt Q05816)", "T2 sequence": "B2 chain", "experiment": "co-IP; endogenous proteins in cardiac tissues of mice; Pierce Classic Magnetic IP/Co-IP Kit"}, "[3]": {"target": "Reticulon 3 (rat (endogenous in NRVCs)) (UniProt Q6RJR6)", "experiment": "co-IP; endogenous proteins in NRVCs, IP with anti-RTN3 or anti-FABP5, normal rabbit IgG as control; Pierce Classic Magnetic IP/Co-IP Kit; with or without palmitate treatment"}, "[4]": {"target": "Reticulon 3 (mouse heart) (mouse (endogenous in cardiac tissue)) (UniProt Q9ES97)", "experiment": "co-IP; endogenous proteins in cardiac tissues of mice; Pierce Classic Magnetic IP/Co-IP Kit"}, "[5]": {"target": "RTN3 R1-3xflag (1st-194th amino acids, lacking C-termini)", "experiment": "co-IP; 293T cells with myc-tagged FABP5 and flag-tagged RTN3 full length or truncated forms; IP with anti-Flag"}, "[6]": {"target": "RTN3 R2-3xflag (65th-236th amino acids, lacking N-termini)", "experiment": "co-IP; 293T cells with myc-tagged FABP5 and flag-tagged RTN3 full length or truncated forms; IP with anti-Flag"}, "[7]": {"target": "RTN3-3xflag (full length)", "experiment": "co-IP; 293T cells with myc-tagged FABP5 and flag-tagged RTN3 full length or truncated forms; IP with anti-Flag"}},
  "note": "These are yes or no findings as the source states them, for the method shown. Binding seen in cells or lysates may run through a third protein. For some of these results: Binding calls can cover weak binding; strength is not graded here. For some of these results: Where a sequence is shown, tags or fusion partners need not be part of it.",
  "data": [
    {"molecule": "Reticulon 3 (from UniProt Q6RJR6-2)", "values": [
      {"measurement": "binding", "setting": "[1]", "value": "binds"}
    ]},
    {"molecule": "Reticulon 3 (mouse heart) (from UniProt Q9ES97-3)", "values": [
      {"measurement": "binding", "setting": "[2]", "value": "binds"}
    ]},
    {"molecule": "B1", "values": [
      {"measurement": "binding", "setting": "[3]", "value": "binds"}
    ]},
    {"molecule": "B2", "values": [
      {"measurement": "binding", "setting": "[4]", "value": "binds"}
    ]},
    {"molecule": "B3", "values": [
      {"measurement": "binding", "setting": "[5]", "value": "binds"},
      {"measurement": "binding", "setting": "[6]", "value": "no binding"},
      {"measurement": "binding", "setting": "[7]", "value": "binds"}
    ]}
  ]
}
